Reference: publication PMC7862700
Only a part is listed here, and it is no random draw. At the low end of the ranking the order means little.

By UniProt entry, the sequences of proteins in these tests, tags left out. Where a name states a change or a piece, a line headed by the entry shows the natural chain unless it says otherwise.
UniProt Q01892: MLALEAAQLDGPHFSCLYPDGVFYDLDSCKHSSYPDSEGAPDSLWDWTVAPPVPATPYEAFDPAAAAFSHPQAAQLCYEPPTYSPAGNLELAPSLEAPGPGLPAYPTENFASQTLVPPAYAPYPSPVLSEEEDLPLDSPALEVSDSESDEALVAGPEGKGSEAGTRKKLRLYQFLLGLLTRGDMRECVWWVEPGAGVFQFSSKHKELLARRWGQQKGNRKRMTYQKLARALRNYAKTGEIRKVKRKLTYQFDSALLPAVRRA
UniProt P41161: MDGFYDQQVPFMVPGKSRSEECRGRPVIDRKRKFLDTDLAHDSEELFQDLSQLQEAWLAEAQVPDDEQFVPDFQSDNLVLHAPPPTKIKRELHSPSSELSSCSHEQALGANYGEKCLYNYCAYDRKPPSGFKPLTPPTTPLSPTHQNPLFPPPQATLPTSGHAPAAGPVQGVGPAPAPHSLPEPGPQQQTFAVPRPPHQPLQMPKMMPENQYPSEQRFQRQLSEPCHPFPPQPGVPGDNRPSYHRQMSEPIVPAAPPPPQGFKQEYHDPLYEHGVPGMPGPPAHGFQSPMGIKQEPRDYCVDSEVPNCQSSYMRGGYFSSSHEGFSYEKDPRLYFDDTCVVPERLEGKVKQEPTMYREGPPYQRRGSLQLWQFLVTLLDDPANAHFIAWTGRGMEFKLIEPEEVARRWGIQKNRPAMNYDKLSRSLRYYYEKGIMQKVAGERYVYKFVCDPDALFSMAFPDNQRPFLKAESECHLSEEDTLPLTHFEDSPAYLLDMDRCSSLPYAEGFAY
UniProt Q99607: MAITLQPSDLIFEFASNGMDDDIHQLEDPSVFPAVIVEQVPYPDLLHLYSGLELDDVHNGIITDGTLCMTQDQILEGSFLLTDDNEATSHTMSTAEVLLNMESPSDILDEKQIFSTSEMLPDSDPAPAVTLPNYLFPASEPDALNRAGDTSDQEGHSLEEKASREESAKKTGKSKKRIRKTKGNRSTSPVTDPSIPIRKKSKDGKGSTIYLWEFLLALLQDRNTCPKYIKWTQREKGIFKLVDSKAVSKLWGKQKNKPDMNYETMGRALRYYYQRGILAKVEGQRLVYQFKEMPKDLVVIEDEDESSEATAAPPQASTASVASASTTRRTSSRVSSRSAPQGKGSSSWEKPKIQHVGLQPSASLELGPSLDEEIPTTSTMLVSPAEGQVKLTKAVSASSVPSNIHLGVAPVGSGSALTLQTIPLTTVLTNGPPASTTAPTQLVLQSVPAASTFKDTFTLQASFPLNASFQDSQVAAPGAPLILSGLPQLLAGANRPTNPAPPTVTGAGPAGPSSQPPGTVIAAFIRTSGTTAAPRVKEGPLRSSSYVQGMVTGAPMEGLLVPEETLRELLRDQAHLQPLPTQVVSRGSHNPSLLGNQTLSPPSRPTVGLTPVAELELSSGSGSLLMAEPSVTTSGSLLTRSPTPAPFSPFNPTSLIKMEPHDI

Key:
Experiment in all cases: DAPPL (digital affinity profiling via proximity ligation, sequencing)
Conditions in all cases: 10 mM Tris-HCl pH 7.5, 50 mM NaCl, 1 mM DTT, 4% glycerol, room temperature, 30 min; GST-TFs on glutathione beads, 16-mer random dsDNA library, 0.1% …; high values mean tight binding; double strand, one strand shown; scale: fold enrichment (6-mer frequency, TF over GST control)
FLI1 = molecular target: T1, FLI1 (UniProt Q01543)
T1 sequence: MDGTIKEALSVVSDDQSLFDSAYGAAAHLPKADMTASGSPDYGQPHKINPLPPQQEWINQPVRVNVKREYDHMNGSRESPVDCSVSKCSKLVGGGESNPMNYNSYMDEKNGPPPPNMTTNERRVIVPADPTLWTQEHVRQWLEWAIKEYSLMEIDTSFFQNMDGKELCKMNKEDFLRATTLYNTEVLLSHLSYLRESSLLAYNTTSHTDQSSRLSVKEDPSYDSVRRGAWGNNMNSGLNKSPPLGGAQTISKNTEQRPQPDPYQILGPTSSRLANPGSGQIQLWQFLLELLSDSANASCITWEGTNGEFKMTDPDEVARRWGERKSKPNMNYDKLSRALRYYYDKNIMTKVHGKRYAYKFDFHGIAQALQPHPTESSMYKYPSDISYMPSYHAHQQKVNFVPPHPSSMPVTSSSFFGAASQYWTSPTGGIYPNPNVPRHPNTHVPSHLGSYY

EHF = molecular target: T2, EHF (UniProt Q9NZC4)
T2 sequence: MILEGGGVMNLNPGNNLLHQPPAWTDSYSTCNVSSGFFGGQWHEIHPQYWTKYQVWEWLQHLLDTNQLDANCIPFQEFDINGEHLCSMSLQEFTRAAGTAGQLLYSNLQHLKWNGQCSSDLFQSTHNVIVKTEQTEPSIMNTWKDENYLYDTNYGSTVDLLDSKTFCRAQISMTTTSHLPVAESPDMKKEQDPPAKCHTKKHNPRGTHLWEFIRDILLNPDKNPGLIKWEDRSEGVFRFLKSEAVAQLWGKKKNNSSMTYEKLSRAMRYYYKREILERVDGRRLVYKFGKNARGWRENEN

SPIB = SPIB (UniProt Q01892)
ETV5 = ETV5 (UniProt P41161)
ELF4 = ELF4 (UniProt Q99607)
ETV2 = molecular target: T3, ETV2 (UniProt O00321)
T3 sequence: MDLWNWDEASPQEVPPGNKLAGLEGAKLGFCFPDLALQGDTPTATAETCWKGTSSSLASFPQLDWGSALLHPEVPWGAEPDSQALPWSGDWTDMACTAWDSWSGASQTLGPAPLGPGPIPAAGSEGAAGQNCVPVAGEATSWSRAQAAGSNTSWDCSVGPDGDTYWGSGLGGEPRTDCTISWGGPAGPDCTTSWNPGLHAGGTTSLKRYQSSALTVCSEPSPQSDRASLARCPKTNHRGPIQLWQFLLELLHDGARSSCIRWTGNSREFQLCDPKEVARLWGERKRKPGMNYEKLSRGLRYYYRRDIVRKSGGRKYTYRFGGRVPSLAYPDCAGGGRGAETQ

ETV3L = molecular target: T4, ETV3L (UniProt Q6ZN32)
T4 sequence: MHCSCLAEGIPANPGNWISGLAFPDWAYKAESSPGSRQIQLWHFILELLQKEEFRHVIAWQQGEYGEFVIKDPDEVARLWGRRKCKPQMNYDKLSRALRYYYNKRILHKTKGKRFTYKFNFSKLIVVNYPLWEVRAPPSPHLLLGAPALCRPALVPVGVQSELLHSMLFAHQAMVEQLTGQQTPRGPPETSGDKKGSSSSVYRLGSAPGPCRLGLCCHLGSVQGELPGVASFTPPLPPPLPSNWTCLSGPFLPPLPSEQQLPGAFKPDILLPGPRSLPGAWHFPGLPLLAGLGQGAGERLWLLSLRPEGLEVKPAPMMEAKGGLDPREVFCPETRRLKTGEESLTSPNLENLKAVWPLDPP

| Sequence | binding signal (FLI1) | binding signal (EHF) | binding signal (SPIB) | binding signal (ETV5) | binding signal (ELF4) | binding signal (ETV2) | binding signal (ETV3L) |
| --- | --- | --- | --- | --- | --- | --- | --- |
| TGGGAG | 0.456 | 0.427 | 0.42 | 0.431 | 0.432 | 0.457 | 0.46 |
| GTAGGC | 0.73 | 0.698 | 0.664 | 0.713 | 0.741 | 0.886 | 0.705 |
| CTGGAG | 0.711 | 0.62 | 0.684 | 0.626 | 0.619 | 0.716 | 0.638 |
| GGTACC | 0.823 | 0.755 | 0.889 | 0.796 | 0.807 | 0.758 | 0.806 |
| GTTGGG | 0.751 | 0.664 | 0.605 | 0.687 | 0.67 | 0.618 | 0.702 |
| ATGTGA | 0.692 | 0.624 | 0.642 | 0.644 | 0.621 | 0.594 | 0.722 |
| CAGGGT | 0.901 | 0.78 | 0.823 | 0.833 | 0.871 | 0.735 | 0.85 |
| GGCCCA | 0.879 | 0.749 | 0.917 | 0.861 | 0.891 | 0.926 | 0.827 |
| GAAGGG | 0.808 | 0.775 | 0.766 | 0.82 | 0.757 | 0.846 | 0.839 |
| AGACAT | 0.805 | 0.797 | 0.815 | 0.834 | 0.793 | 0.917 | 0.896 |
| TAGGGG | 0.819 | 0.85 | 0.841 | 0.816 | 0.801 | 0.887 | 0.874 |
| CCACGG | 0.911 | 0.854 | 0.852 | 0.851 | 0.949 | 0.814 | 0.884 |
| CAAGTG | 0.771 | 0.776 | 0.791 | 0.752 | 0.756 | 0.679 | 0.728 |
| GATCGG | 0.512 | 0.51 | 0.457 | 0.457 | 0.477 | 0.441 | 0.5 |
| GGCAAC | 0.912 | 0.887 | 0.889 | 0.926 | 0.907 | 0.874 | 0.961 |
| CGGTGG | 0.653 | 0.624 | 0.655 | 0.626 | 0.627 | 0.536 | 0.698 |
| CCCGTG | 0.527 | 0.529 | 0.555 | 0.549 | 0.563 | 0.536 | 0.522 |
| CGTGTA | 0.722 | 0.659 | 0.661 | 0.645 | 0.662 | 0.612 | 0.626 |
| ATAGAG | 0.874 | 0.934 | 0.828 | 0.863 | 0.813 | 0.791 | 0.94 |
| GGGGGA | 0.639 | 0.533 | 0.562 | 0.57 | 0.505 | 0.589 | 0.635 |

In another format: entries from further up.
Sequence	binding signal (FLI1)	binding signal (EHF)	binding signal (SPIB)	binding signal (ETV5)	binding signal (ELF4)	binding signal (ETV2)	binding signal (ETV3L)
CGGTGG	0.653	0.624	0.655	0.626	0.627	0.536	0.698
CCCGTG	0.527	0.529	0.555	0.549	0.563	0.536	0.522
CGTGTA	0.722	0.659	0.661	0.645	0.662	0.612	0.626
ATAGAG	0.874	0.934	0.828	0.863	0.813	0.791	0.94

Going on with the list:

| Sequence | binding signal (FLI1) | binding signal (EHF) | binding signal (SPIB) | binding signal (ETV5) | binding signal (ELF4) | binding signal (ETV2) | binding signal (ETV3L) |
| --- | --- | --- | --- | --- | --- | --- | --- |
| GAGACC | 0.223 | 0.222 | 0.22 | 0.2 | 0.22 | 0.174 | 0.202 |
| GTGACA | 0.765 | 0.77 | 0.731 | 0.781 | 0.788 | 0.651 | 0.869 |
| ACCAGA | 0.887 | 0.878 | 0.895 | 0.913 | 0.946 | 1.01 | 0.958 |
| AGGCGC | 0.534 | 0.52 | 0.521 | 0.577 | 0.577 | 0.648 | 0.631 |
| GACTGA | 0.778 | 0.801 | 0.809 | 0.811 | 0.865 | 0.723 | 0.764 |
| GCGCCA | 0.76 | 0.745 | 0.806 | 0.751 | 0.77 | 0.914 | 0.804 |
| CGCATA | 0.756 | 0.713 | 0.743 | 0.752 | 0.737 | 0.654 | 0.735 |
| GCCGGC | 0.837 | 0.824 | 0.838 | 0.826 | 0.801 | 0.812 | 0.742 |
| GGGAAC | 0.684 | 0.683 | 0.658 | 0.679 | 0.614 | 0.663 | 0.666 |
| TGAGGT | 0.672 | 0.614 | 0.597 | 0.608 | 0.64 | 0.506 | 0.667 |
| GTGGGC | 0.761 | 0.756 | 0.708 | 0.708 | 0.684 | 0.629 | 0.701 |
| CAGTTT | 0.945 | 0.862 | 1.03 | 0.913 | 0.915 | 0.962 | 0.939 |
| GCCATG | 0.764 | 0.806 | 0.723 | 0.698 | 0.854 | 0.7 | 0.793 |
| GGGTAG | 0.766 | 0.566 | 0.691 | 0.664 | 0.617 | 0.725 | 0.634 |
| GTCAGC | 0.753 | 0.694 | 0.706 | 0.71 | 0.769 | 0.885 | 0.651 |
| CGCAGG | 0.827 | 0.81 | 0.923 | 0.833 | 0.886 | 0.897 | 0.83 |
| AGTTGA | 0.811 | 0.795 | 0.829 | 0.754 | 0.805 | 0.708 | 0.791 |
| GTGAAC | 0.813 | 0.885 | 0.797 | 0.833 | 0.837 | 0.765 | 0.908 |
| GGCGTC | 0.699 | 0.724 | 0.768 | 0.8 | 0.826 | 0.789 | 0.767 |
| GGTAGC | 0.898 | 0.816 | 0.828 | 0.824 | 0.824 | 0.859 | 0.83 |

| Sequence | binding signal (FLI1) | binding signal (EHF) | binding signal (SPIB) | binding signal (ETV5) | binding signal (ELF4) | binding signal (ETV2) | binding signal (ETV3L) |
| --- | --- | --- | --- | --- | --- | --- | --- |
| AGGCGT | 0.514 | 0.449 | 0.498 | 0.512 | 0.469 | 0.488 | 0.503 |
| TAGGAG | 0.397 | 0.394 | 0.391 | 0.404 | 0.387 | 0.4 | 0.377 |
| GGTGCC | 0.706 | 0.726 | 0.765 | 0.791 | 0.74 | 0.696 | 0.826 |
| GACGTG | 0.376 | 0.328 | 0.3 | 0.341 | 0.348 | 0.321 | 0.344 |
| ACGCAG | 0.833 | 0.751 | 0.765 | 0.818 | 0.784 | 0.887 | 0.733 |
| GCGAGT | 0.592 | 0.574 | 0.558 | 0.541 | 0.577 | 0.624 | 0.529 |
| AAAGGA | 0.854 | 0.862 | 0.836 | 0.867 | 0.85 | 0.881 | 0.866 |
| GGTCGC | 0.865 | 0.836 | 0.794 | 0.823 | 0.831 | 0.805 | 0.787 |
| GTGAGC | 0.384 | 0.417 | 0.351 | 0.372 | 0.405 | 0.411 | 0.402 |
| GGAAAG | 0.848 | 0.889 | 0.958 | 0.932 | 0.961 | 0.884 | 0.939 |
| GGACAC | 0.771 | 0.789 | 0.702 | 0.792 | 0.827 | 0.663 | 0.743 |
| GGAGTT | 0.442 | 0.47 | 0.457 | 0.465 | 0.442 | 0.503 | 0.43 |
| TGTGTG | 0.845 | 0.758 | 0.893 | 0.943 | 0.862 | 0.873 | 0.966 |
| GGAGCA | 0.452 | 0.486 | 0.428 | 0.48 | 0.463 | 0.375 | 0.448 |
| CAGGTG | 0.533 | 0.586 | 0.573 | 0.587 | 0.628 | 0.58 | 0.593 |
| TAGAGG | 0.826 | 0.807 | 0.812 | 0.804 | 0.787 | 0.854 | 0.845 |
| GAGTTT | 0.594 | 0.596 | 0.618 | 0.611 | 0.633 | 0.574 | 0.641 |
| GACCAT | 0.847 | 0.823 | 0.838 | 0.791 | 0.889 | 0.896 | 0.867 |
| GTCATC | 0.862 | 0.87 | 0.94 | 0.832 | 0.836 | 0.8 | 0.846 |
| TAGAGT | 0.756 | 0.748 | 0.765 | 0.74 | 0.765 | 0.731 | 0.89 |
